PubChem BioAssay AID686937, Drosophila RNAi Screening Center | 2013

- Test: 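Genes whose loss weakens secretory pathway function in fly cells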 (primary screen)
- Cell system: Drosophila S2 cells expressing secreted horseradish peroxidase
- Knock-down reagent: long dsRNA against Drosophila genes
- Time to read-out: about 5.5 days (5 days dsRNA, then 12 h reporter induction)
- Conditions: reporter expression induced after 5 days of dsRNA, read 12 h later; inducer not stated
- Detection: 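Chemiluminescent measurement of peroxidase in the medium 12 h after reporter induction, following 5 days of dsRNA, given as a z-score per plate; higher means more secretion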
- Reading the numbers: z-score: higher = more reporter secreted into medium
In all, the deposit lists about 23,000 reagents; shown is a random part of those that have a named target and a result. 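Reduced-secretion tags in replicate 1 do not always agree with the z-scores; no criterion for assigning the tags was given.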 Further read-outs or replicates are left out here. Reagent sequences are not shown. The record does not give: the amount of reagent.

How did the screen score Ser6 [DRSC20574]?
z-score, replicate 1: 0.5

With HP1e [DRSC16379], how do the results read?
z-score, replicate 1: 0.37

What did the screen give for ca [DRSC15305]?
z-score, replicate 1: 0.38

With ca [DRSC15306], what was measured?
z-score, replicate 1: 0.25

With ca [DRSC16314], how do the results read?
z-score, replicate 1: 0.19

What is on record for jbug [DRSC03952]?
z-score, replicate 1: 0.01

What did the screen give for jbug [DRSC04114]?
z-score, replicate 1: 0.08

What is on record for jbug [DRSC04167]?
z-score, replicate 1: -0.41

With jbug [DRSC04388], what was measured?
z-score, replicate 1: 0.41

What is on record for CG5068 [DRSC10476]?
z-score, replicate 1: 0.26

What is on record for pip [DRSC11382]?
z-score, replicate 1: 0.3

What did the screen give for CG31437 [DRSC13711]?
z-score, replicate 1: 0.72

For msopa [DRSC11895], what does the deposit list?
z-score, replicate 1: -0.94

For CG9328 [DRSC03203], how do the results read?
z-score, replicate 1: -0.04

With unc-4 [DRSC20381], what was measured?
z-score, replicate 1: 0.44

With unc-4 [DRSC22074], what does the deposit list?
z-score, replicate 1: 0.62

With nemy [DRSC05357], what was measured?
z-score, replicate 1: 0.51

What did the screen give for nemy [DRSC07262]?
z-score, replicate 1: 0.53

For CG4704 [DRSC15628], what was measured?
z-score, replicate 1: 0.43

What did the screen give for CG6878 [DRSC10737]?
z-score, replicate 1: 0.22

With CG13921 [DRSC08390], what was measured?
z-score, replicate 1: -0.21

How did the screen score CG7766 [DRSC18424]?
z-score, replicate 1: 0.58

For kra [DRSC12320], how do the results read?
z-score, replicate 1: 0.13

Which result is listed for CG4612 [DRSC04478]?
z-score, replicate 1: -0.53

With CG10911 [DRSC06008], what does the deposit list?
z-score, replicate 1: 0.08

For Fum2 [DRSC18345], how do the results read?
z-score, replicate 1: 0.01

How did the screen score CG33494 [DRSC13715]?
z-score, replicate 1: 0.76

What is on record for CG4382 [DRSC02743]?
z-score, replicate 1: 0.37

For Ciz1 [DRSC09675], how do the results read?
z-score, replicate 1: -0.91

What did the screen give for CG9386 [DRSC16485]?
z-score, replicate 1: 0.5

With CG30380 [DRSC05069], how do the results read?
z-score, replicate 1: 0.17

Which result is listed for CG6726 [DRSC16101]?
z-score, replicate 1: 0.29

For Zir [DRSC00307], what does the deposit list?
z-score, replicate 1: 0.34

With asun [DRSC16733], how do the results read?
z-score, replicate 1: 0.37

How did the screen score snky [DRSC09838]?
z-score, replicate 1: 0.4

What is on record for Grasp65 [DRSC10917]?
z-score, replicate 1: 0.07

How did the screen score Elovl7 [DRSC15452]?
z-score, replicate 1: 0.37

For Elovl7 [DRSC21570], what does the deposit list?
z-score, replicate 1: -0.53

What did the screen give for CG6470 [DRSC19994]?
z-score, replicate 1: 0.31

What did the screen give for CG3999 [DRSC15534]?
z-score, replicate 1: 0.2

For Jasper [DRSC16352], what was measured?
z-score, replicate 1: 0.49

What is on record for CG10435 [DRSC14246]?
z-score, replicate 1: 0.72

For CG15404 [DRSC00418], how do the results read?
z-score, replicate 1: 0.51

For CG33137 [DRSC22131], how do the results read?
z-score, replicate 1: 0.32

Which result is listed for Ugt317A1 [DRSC04470]?
z-score, replicate 1: -0.14

Which result is listed for CG17249 [DRSC08517]?
z-score, replicate 1: 0.11

For salr [DRSC03607], how do the results read?
z-score, replicate 1: -0.28

What did the screen give for BckdhA [DRSC16395]?
z-score, replicate 1: 0.21

With Wbp2 [DRSC09821], what was measured?
z-score, replicate 1: -0.42

How did the screen score CG34355 [DRSC13639]?
z-score, replicate 1: 0.37

How did the screen score CG34355 [DRSC14520]?
z-score, replicate 1: 0.16

Which result is listed for CG34355 [DRSC14668]?
z-score, replicate 1: 0.21

With CG34355 [DRSC21687], what does the deposit list?
z-score, replicate 1: -0.61

No new results follow: entries from further up.
CG7766 [DRSC18424] → z-score, replicate 1: 0.58
kra [DRSC12320] → z-score, replicate 1: 0.13
CG4612 [DRSC04478] → z-score, replicate 1: -0.53
CG10911 [DRSC06008] → z-score, replicate 1: 0.08
Fum2 [DRSC18345] → z-score, replicate 1: 0.01
CG33494 [DRSC13715] → z-score, replicate 1: 0.76
